Earlier results in US20050042271A1, “Transdermal delivery system for alkaloids of aconitum species” (priority 1999, published 2005).
Some results were stated once for a whole list of compounds, not compound by compound. For at least one compound, name, drawing or mass did not settle the structure.

Settings: dosage regimens

## CCN1C[C@]2(OC(=O)c3ccccc3NC(C)=O)CC[C@H](OC)[C@@]34[C@@H]2C[C@@H]([C@@H]13)[C@@]1(O)C[C@H](OC)[C@H]2C[C@@H]4[C@]1(O)[C@H]2OC [lappaconitine]
  time to relieve drug dependence and remove withdrawal syndrome: 3 to 4 days

## bulleyaconitine A
  time to relieve drug dependence and remove withdrawal syndrome: 3 to 4 days
